Source: the supplement of paper PMC7646827
Single values are uncertain, as repeats are few or missing.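 All cells are established human bladder cancer lines, one of them grown from a patient-derived xenograft. Viability was read by a luminescent ATP assay as percent inhibition versus vehicle over a seven-point dilution series; the paper calls scores above 59 very active, 30–59 active, 21–29 semi-active, 9–20 low active and below 9 inactive.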

Experiments:
Assay in all cases: drug sensitivity score DSS3 (score 0-100); higher = more sensitive; extreme values may be limits of the assay
Conditions in all cases: culture: 3D, ultra-low attachment; treatment time: 5 days
5637 = system: 5637
BC8149 = system: BC8149
J82 = system: J82
SCaBER = system: SCaBER
SW780 = system: SW780
T-24 = system: T-24
TCCSUP = system: TCCSUP
UM-UC-12 = system: UM-UC-12
UM-UC-14 = system: UM-UC-14
UM-UC-15 = system: UM-UC-15
UM-UC-17 = system: UM-UC-17
UM-UC-18 = system: UM-UC-18
UM-UC-1 = system: UM-UC-1
UM-UC-3 = system: UM-UC-3
UM-UC-5 = system: UM-UC-5
UM-UC-6 = system: UM-UC-6
UM-UC-9 = system: UM-UC-9

O=c1[nH]c2ccc(Cl)cc2c(N[C@@H]2CN3CCC2CC3)c1-c1nc2ccccc2[nH]1 [CHIR-124] (max dose 10000 nM)
drug sensitivity score DSS3 5637: 19 | drug sensitivity score DSS3 (BC8149): 10 | drug sensitivity score DSS3 (J82): 1.62 | drug sensitivity score DSS3 (SCaBER): 0.104 | drug sensitivity score DSS3 (SW780): 0 | drug sensitivity score DSS3 (T-24): 1.67 | drug sensitivity score DSS3 (TCCSUP): 26.4 | drug sensitivity score DSS3 (UM-UC-12): 2.73 | drug sensitivity score DSS3 (UM-UC-14): 3.78 | drug sensitivity score DSS3 (UM-UC-15): 40.5 | drug sensitivity score DSS3 (UM-UC-17): 2.58 | drug sensitivity score DSS3 (UM-UC-18): 7.29 | drug sensitivity score DSS3 (UM-UC-1): 15.2 | drug sensitivity score DSS3 (UM-UC-3): 0.108 | drug sensitivity score DSS3 (UM-UC-5): 0.144 | drug sensitivity score DSS3 (UM-UC-6): 16 | drug sensitivity score DSS3 (UM-UC-9): 1.65

C=CC(=O)Nc1cccc(Nc2nc(Nc3ccc(Oc4ccnc(C(=O)NC)c4)cc3)ncc2F)c1 [CNX-774] (max dose 10000 nM)
drug sensitivity score DSS3 5637: 1.15 | drug sensitivity score DSS3 (BC8149): 0.848 | drug sensitivity score DSS3 (J82): 0 | drug sensitivity score DSS3 (SCaBER): 3.56 | drug sensitivity score DSS3 (SW780): 0 | drug sensitivity score DSS3 (T-24): 0 | drug sensitivity score DSS3 (TCCSUP): 1.07 | drug sensitivity score DSS3 (UM-UC-12): 1.1 | drug sensitivity score DSS3 (UM-UC-14): 0.239 | drug sensitivity score DSS3 (UM-UC-15): 0 | drug sensitivity score DSS3 (UM-UC-17): 0.226 | drug sensitivity score DSS3 (UM-UC-18): 0 | drug sensitivity score DSS3 (UM-UC-1): 22.9 | drug sensitivity score DSS3 (UM-UC-3): 11.5 | drug sensitivity score DSS3 (UM-UC-5): 0 | drug sensitivity score DSS3 (UM-UC-6): 0 | drug sensitivity score DSS3 (UM-UC-9): 0

C=CC(=O)Nc1cccc(Nc2nc(Nc3ccc(NC4CN(CCF)C4)cc3OC)ncc2C(F)(F)F)c1 [CNX-2006] (max dose 10000 nM)
drug sensitivity score DSS3 5637: 3.23 | drug sensitivity score DSS3 (BC8149): 1.2 | drug sensitivity score DSS3 (J82): 0.43 | drug sensitivity score DSS3 (SCaBER): 3.65 | drug sensitivity score DSS3 (SW780): 0 | drug sensitivity score DSS3 (T-24): 8.54 | drug sensitivity score DSS3 (TCCSUP): 3.99 | drug sensitivity score DSS3 (UM-UC-12): 2.67 | drug sensitivity score DSS3 (UM-UC-14): 1.58 | drug sensitivity score DSS3 (UM-UC-15): 0 | drug sensitivity score DSS3 (UM-UC-17): 0 | drug sensitivity score DSS3 (UM-UC-18): 3.07 | drug sensitivity score DSS3 (UM-UC-1): 0.488 | drug sensitivity score DSS3 (UM-UC-3): 3.06 | drug sensitivity score DSS3 (UM-UC-5): 0 | drug sensitivity score DSS3 (UM-UC-6): 0.279 | drug sensitivity score DSS3 (UM-UC-9): 0.0511

COc1cc(C)[nH]c(=O)c1CNC(=O)c1c(C)n([C@H](C)C2CCOCC2)c2ccccc12 [CPI-360] (max dose 10000 nM)
drug sensitivity score DSS3 5637: 1.93 | drug sensitivity score DSS3 (BC8149): 0 | drug sensitivity score DSS3 (J82): 0 | drug sensitivity score DSS3 (SCaBER): 0.462 | drug sensitivity score DSS3 (SW780): 0 | drug sensitivity score DSS3 (T-24): 0 | drug sensitivity score DSS3 (TCCSUP): 5.2 | drug sensitivity score DSS3 (UM-UC-12): 0.00414 | drug sensitivity score DSS3 (UM-UC-14): 0 | drug sensitivity score DSS3 (UM-UC-15): 0 | drug sensitivity score DSS3 (UM-UC-17): 0.111 | drug sensitivity score DSS3 (UM-UC-18): 0 | drug sensitivity score DSS3 (UM-UC-1): 0.588 | drug sensitivity score DSS3 (UM-UC-3): 0 | drug sensitivity score DSS3 (UM-UC-5): 0 | drug sensitivity score DSS3 (UM-UC-6): 1.64 | drug sensitivity score DSS3 (UM-UC-9): 0

C#Cc1cccc(Nc2ncnc3cc(OC)c(OCCCCCCC(=O)NO)cc23)c1 [CUDC-101] (max dose 10000 nM)
drug sensitivity score DSS3 5637: 6.15 | drug sensitivity score DSS3 (BC8149): 2.08 | drug sensitivity score DSS3 (J82): 0.873 | drug sensitivity score DSS3 (SCaBER): 1.77 | drug sensitivity score DSS3 (SW780): 0 | drug sensitivity score DSS3 (T-24): 1.27 | drug sensitivity score DSS3 (TCCSUP): 2.67 | drug sensitivity score DSS3 (UM-UC-12): 3.75 | drug sensitivity score DSS3 (UM-UC-14): 0.336 | drug sensitivity score DSS3 (UM-UC-15): 2.46 | drug sensitivity score DSS3 (UM-UC-17): 0.889 | drug sensitivity score DSS3 (UM-UC-18): 2.54 | drug sensitivity score DSS3 (UM-UC-1): 0 | drug sensitivity score DSS3 (UM-UC-3): 1.27 | drug sensitivity score DSS3 (UM-UC-5): 0 | drug sensitivity score DSS3 (UM-UC-6): 0 | drug sensitivity score DSS3 (UM-UC-9): 0.616

O=C(O)c1ccc2c(c1)nc(Nc1cccc(Cl)c1)c1ccncc12 [CX-4945 (Silmitasertib)] (max dose 10000 nM)
drug sensitivity score DSS3 5637: 0.694 | drug sensitivity score DSS3 (BC8149): 1.11 | drug sensitivity score DSS3 (J82): 0 | drug sensitivity score DSS3 (SCaBER): 0.582 | drug sensitivity score DSS3 (SW780): 0 | drug sensitivity score DSS3 (T-24): 0 | drug sensitivity score DSS3 (TCCSUP): 0 | drug sensitivity score DSS3 (UM-UC-12): 0 | drug sensitivity score DSS3 (UM-UC-14): 0 | drug sensitivity score DSS3 (UM-UC-15): 0 | drug sensitivity score DSS3 (UM-UC-17): 0 | drug sensitivity score DSS3 (UM-UC-18): 0 | drug sensitivity score DSS3 (UM-UC-1): 0 | drug sensitivity score DSS3 (UM-UC-3): 0 | drug sensitivity score DSS3 (UM-UC-5): 0 | drug sensitivity score DSS3 (UM-UC-6): 0 | drug sensitivity score DSS3 (UM-UC-9): 0

Cc1nc(N)sc1-c1ccnc(Nc2ccc(N3CCOCC3)cc2)n1 [CYC116] (max dose 10000 nM)
drug sensitivity score DSS3 5637: 4.26 | drug sensitivity score DSS3 (BC8149): 7.78 | drug sensitivity score DSS3 (J82): 1.27 | drug sensitivity score DSS3 (SCaBER): 1.74 | drug sensitivity score DSS3 (SW780): 0 | drug sensitivity score DSS3 (T-24): 1.3 | drug sensitivity score DSS3 (TCCSUP): 12.6 | drug sensitivity score DSS3 (UM-UC-12): 1.14 | drug sensitivity score DSS3 (UM-UC-14): 4.51 | drug sensitivity score DSS3 (UM-UC-15): 0 | drug sensitivity score DSS3 (UM-UC-17): 0 | drug sensitivity score DSS3 (UM-UC-18): 0.729 | drug sensitivity score DSS3 (UM-UC-1): 1.42 | drug sensitivity score DSS3 (UM-UC-3): 1.41 | drug sensitivity score DSS3 (UM-UC-5): 0 | drug sensitivity score DSS3 (UM-UC-6): 0 | drug sensitivity score DSS3 (UM-UC-9): 0

N#CCNC(=O)c1ccc(-c2ccnc(Nc3ccc(N4CCOCC4)cc3)n2)cc1 [CYT387] (max dose 10000 nM)
drug sensitivity score DSS3 5637: 0.0444 | drug sensitivity score DSS3 (BC8149): 0 | drug sensitivity score DSS3 (J82): 0 | drug sensitivity score DSS3 (SCaBER): 0 | drug sensitivity score DSS3 (SW780): 0 | drug sensitivity score DSS3 (T-24): 0 | drug sensitivity score DSS3 (TCCSUP): 1.24 | drug sensitivity score DSS3 (UM-UC-12): 0 | drug sensitivity score DSS3 (UM-UC-14): 0.449 | drug sensitivity score DSS3 (UM-UC-15): 0 | drug sensitivity score DSS3 (UM-UC-17): 0 | drug sensitivity score DSS3 (UM-UC-18): 0 | drug sensitivity score DSS3 (UM-UC-1): 0 | drug sensitivity score DSS3 (UM-UC-3): 1.16 | drug sensitivity score DSS3 (UM-UC-5): 0.161 | drug sensitivity score DSS3 (UM-UC-6): 0 | drug sensitivity score DSS3 (UM-UC-9): 0

COc1cc2nccc(Oc3ccc(NC(=O)C4(C(=O)Nc5ccc(F)cc5)CC4)cc3)c2cc1OC [Cabozantinib] (max dose 10000 nM)
drug sensitivity score DSS3 5637: 0 | drug sensitivity score DSS3 (BC8149): 0 | drug sensitivity score DSS3 (J82): 1.15 | drug sensitivity score DSS3 (SCaBER): 1.25 | drug sensitivity score DSS3 (SW780): 1.12 | drug sensitivity score DSS3 (T-24): 0 | drug sensitivity score DSS3 (TCCSUP): 6.82 | drug sensitivity score DSS3 (UM-UC-12): 2.09 | drug sensitivity score DSS3 (UM-UC-14): 0 | drug sensitivity score DSS3 (UM-UC-15): 0 | drug sensitivity score DSS3 (UM-UC-17): 0 | drug sensitivity score DSS3 (UM-UC-18): 0 | drug sensitivity score DSS3 (UM-UC-1): 1.81 | drug sensitivity score DSS3 (UM-UC-3): 0 | drug sensitivity score DSS3 (UM-UC-5): 0 | drug sensitivity score DSS3 (UM-UC-6): 0.491 | drug sensitivity score DSS3 (UM-UC-9): 0

CC[C@@]1(O)C(=O)OCc2c1cc1n(c2=O)Cc2cc3ccccc3nc2-1 [Camptothecin] (max dose 5000 nM)
drug sensitivity score DSS3 5637: 80.3 | drug sensitivity score DSS3 (BC8149): 79.8 | drug sensitivity score DSS3 (J82): 62.3 | drug sensitivity score DSS3 (SCaBER): 36 | drug sensitivity score DSS3 (SW780): 35.1 | drug sensitivity score DSS3 (T-24): 23.7 | drug sensitivity score DSS3 (TCCSUP): 76.5 | drug sensitivity score DSS3 (UM-UC-12): 73.5 | drug sensitivity score DSS3 (UM-UC-14): 64 | drug sensitivity score DSS3 (UM-UC-15): 18 | drug sensitivity score DSS3 (UM-UC-17): 50.1 | drug sensitivity score DSS3 (UM-UC-18): 76.8 | drug sensitivity score DSS3 (UM-UC-1): 76.9 | drug sensitivity score DSS3 (UM-UC-3): 62.6 | drug sensitivity score DSS3 (UM-UC-5): 22.3 | drug sensitivity score DSS3 (UM-UC-6): 46.9 | drug sensitivity score DSS3 (UM-UC-9): 30.4

Cc1ccc([C@@H]2O[C@H](CO)[C@@H](O)[C@H](O)[C@H]2O)cc1Cc1ccc(-c2ccc(F)cc2)s1 [Canagliflozin] (max dose 10000 nM)
drug sensitivity score DSS3 5637: 0 | drug sensitivity score DSS3 (BC8149): 0.183 | drug sensitivity score DSS3 (J82): 0 | drug sensitivity score DSS3 (SCaBER): 0 | drug sensitivity score DSS3 (SW780): 0 | drug sensitivity score DSS3 (T-24): 0 | drug sensitivity score DSS3 (TCCSUP): 0 | drug sensitivity score DSS3 (UM-UC-12): 0 | drug sensitivity score DSS3 (UM-UC-14): 0 | drug sensitivity score DSS3 (UM-UC-15): 0 | drug sensitivity score DSS3 (UM-UC-17): 0 | drug sensitivity score DSS3 (UM-UC-18): 0 | drug sensitivity score DSS3 (UM-UC-1): 0 | drug sensitivity score DSS3 (UM-UC-3): 0 | drug sensitivity score DSS3 (UM-UC-5): 0 | drug sensitivity score DSS3 (UM-UC-6): 0 | drug sensitivity score DSS3 (UM-UC-9): 0
